Measured values published in paper doi:10.1101/373597.
These are yes or no findings as the source states them, for the method shown. Binding seen in cells or lysates may run through a third protein. Some binding calls cover weakened binding; strength is not graded here. For some assays here: Sequences can lack the tags named with a protein.

Sequences of proteins named here, by UniProt entry; tags and fusion partners are left off. Residues count along the entry.
UniProt O60260: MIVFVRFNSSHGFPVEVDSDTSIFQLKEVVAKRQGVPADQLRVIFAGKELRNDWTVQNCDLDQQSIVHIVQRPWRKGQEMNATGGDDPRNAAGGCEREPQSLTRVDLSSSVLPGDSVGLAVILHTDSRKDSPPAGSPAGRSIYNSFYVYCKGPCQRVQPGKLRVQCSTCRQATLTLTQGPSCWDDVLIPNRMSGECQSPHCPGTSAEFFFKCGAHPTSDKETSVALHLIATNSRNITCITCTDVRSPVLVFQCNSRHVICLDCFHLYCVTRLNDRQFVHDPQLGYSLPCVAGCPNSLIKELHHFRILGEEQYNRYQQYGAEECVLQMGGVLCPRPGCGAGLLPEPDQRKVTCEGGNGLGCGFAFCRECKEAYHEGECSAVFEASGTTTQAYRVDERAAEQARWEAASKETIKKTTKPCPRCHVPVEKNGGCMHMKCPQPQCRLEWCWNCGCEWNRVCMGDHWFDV
UniProt Q00960, residues 27-1482: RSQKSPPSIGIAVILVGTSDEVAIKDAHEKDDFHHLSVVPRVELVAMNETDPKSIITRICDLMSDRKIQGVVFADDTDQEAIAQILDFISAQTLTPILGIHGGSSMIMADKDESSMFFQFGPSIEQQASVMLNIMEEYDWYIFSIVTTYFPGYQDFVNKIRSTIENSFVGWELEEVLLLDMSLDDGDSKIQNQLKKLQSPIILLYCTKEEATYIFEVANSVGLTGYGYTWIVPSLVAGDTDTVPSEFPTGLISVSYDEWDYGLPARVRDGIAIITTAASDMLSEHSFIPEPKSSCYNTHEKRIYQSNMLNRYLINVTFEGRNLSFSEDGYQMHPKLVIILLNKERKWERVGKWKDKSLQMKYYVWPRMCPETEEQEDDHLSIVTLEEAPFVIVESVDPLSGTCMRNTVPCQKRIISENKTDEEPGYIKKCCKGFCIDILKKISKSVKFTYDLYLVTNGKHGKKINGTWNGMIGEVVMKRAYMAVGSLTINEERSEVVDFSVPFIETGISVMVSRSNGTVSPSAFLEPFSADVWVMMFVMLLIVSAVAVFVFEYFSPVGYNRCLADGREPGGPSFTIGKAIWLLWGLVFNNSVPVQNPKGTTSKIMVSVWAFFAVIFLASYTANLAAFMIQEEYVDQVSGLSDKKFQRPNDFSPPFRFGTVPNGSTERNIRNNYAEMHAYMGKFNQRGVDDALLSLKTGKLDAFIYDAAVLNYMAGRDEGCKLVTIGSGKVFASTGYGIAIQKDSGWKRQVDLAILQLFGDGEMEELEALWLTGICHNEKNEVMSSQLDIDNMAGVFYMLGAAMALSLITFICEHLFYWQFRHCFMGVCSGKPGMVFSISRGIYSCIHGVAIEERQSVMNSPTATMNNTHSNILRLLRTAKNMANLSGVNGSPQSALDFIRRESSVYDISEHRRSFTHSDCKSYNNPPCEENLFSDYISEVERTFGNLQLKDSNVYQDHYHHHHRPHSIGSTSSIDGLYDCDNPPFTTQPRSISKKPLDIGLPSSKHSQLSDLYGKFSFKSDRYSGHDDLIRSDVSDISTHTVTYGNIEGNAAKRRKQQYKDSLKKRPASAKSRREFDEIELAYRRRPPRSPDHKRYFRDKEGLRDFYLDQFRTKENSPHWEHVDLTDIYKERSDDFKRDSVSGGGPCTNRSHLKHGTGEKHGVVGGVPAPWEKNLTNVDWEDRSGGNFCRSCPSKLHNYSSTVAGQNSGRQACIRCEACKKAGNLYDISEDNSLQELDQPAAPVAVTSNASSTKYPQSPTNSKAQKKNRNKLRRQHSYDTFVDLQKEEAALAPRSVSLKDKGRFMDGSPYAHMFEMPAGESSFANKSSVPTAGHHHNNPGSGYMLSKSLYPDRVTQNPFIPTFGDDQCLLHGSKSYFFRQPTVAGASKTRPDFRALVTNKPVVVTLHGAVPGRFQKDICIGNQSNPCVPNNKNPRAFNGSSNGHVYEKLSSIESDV
UniProt P19491, residues 22-883: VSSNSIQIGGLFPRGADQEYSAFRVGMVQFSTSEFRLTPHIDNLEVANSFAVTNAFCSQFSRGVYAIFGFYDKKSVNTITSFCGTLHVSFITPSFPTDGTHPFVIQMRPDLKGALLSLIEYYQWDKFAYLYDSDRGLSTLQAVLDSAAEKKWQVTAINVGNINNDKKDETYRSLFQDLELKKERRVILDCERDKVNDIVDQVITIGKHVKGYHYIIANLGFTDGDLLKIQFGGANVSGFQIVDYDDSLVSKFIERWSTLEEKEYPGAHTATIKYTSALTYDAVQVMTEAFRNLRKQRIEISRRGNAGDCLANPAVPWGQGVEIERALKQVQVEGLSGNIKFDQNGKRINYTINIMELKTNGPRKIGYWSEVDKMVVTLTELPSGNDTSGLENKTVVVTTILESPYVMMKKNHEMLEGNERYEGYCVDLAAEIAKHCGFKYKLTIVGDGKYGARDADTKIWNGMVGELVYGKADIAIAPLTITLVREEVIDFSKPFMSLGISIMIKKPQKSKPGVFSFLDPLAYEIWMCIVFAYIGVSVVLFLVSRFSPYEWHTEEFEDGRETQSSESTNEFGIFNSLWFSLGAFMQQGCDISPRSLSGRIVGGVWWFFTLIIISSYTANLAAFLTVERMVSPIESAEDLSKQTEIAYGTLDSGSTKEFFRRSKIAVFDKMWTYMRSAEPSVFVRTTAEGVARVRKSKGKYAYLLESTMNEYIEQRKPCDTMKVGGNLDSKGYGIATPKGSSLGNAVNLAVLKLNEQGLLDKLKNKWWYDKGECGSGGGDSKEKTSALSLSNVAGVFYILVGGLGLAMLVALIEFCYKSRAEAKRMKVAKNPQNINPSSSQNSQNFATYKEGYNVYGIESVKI
UniProt P19490, residues 19-907: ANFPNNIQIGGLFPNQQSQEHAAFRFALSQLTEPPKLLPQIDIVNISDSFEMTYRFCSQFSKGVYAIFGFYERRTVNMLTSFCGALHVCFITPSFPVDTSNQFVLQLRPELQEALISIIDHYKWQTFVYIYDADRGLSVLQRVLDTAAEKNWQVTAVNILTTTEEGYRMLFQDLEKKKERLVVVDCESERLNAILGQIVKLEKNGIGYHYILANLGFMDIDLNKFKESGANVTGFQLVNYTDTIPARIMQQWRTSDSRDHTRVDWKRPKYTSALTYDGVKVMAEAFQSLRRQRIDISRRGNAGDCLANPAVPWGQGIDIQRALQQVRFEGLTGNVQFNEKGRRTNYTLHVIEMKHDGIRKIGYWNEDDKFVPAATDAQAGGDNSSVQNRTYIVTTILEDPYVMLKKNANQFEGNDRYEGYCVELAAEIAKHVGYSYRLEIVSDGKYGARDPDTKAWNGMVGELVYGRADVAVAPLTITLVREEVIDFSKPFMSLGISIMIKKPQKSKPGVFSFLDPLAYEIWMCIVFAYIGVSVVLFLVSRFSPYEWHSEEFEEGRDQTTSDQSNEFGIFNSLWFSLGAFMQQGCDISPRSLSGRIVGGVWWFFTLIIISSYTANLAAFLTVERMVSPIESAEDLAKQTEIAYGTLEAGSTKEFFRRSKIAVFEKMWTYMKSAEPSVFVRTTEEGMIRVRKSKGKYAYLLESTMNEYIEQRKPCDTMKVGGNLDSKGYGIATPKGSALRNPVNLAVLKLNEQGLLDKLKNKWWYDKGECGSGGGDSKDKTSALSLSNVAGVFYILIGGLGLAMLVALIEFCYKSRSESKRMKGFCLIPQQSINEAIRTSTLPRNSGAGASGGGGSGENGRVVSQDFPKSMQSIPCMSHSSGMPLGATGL

Legend:
Myc-Parkin = Myc-Parkin (UniProt O60260); assay: co-IP
GFP-Homer1 = target: T1, GFP-Homer1 (UniProt Q9Z214); assay: co-IP
T1 sequence: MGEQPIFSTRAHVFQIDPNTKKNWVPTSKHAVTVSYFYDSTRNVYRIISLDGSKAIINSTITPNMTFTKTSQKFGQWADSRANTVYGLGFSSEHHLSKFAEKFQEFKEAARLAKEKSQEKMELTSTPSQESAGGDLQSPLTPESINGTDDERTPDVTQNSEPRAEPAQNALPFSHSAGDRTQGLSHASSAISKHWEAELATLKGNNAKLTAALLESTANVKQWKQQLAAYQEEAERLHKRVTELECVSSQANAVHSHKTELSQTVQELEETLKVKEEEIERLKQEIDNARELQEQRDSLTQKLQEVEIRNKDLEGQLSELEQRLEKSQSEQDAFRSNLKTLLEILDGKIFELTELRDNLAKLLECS

GFP-GluN2B (pCI-SEP-GluN2B) (from UniProt Q00960 27-1482) (receptor)
binding (Myc-Parkin): no binding

GFP-GluA2 (pCI-SEP-GluA2) (from UniProt P19491 22-883) (receptor)
binding (Myc-Parkin): no binding

GFP-GluN1 (pCI-SEP-GluN1) (from UniProt P35439 19-938) (receptor)
binding (Myc-Parkin): binds

GFP-Parkin WT (from UniProt O60260 1-465) (enzyme)
binding (GFP-Homer1): binds

GFP-GluA1 (pCI-SEP-GluA1) (from UniProt P19490 19-907) (receptor)
binding (Myc-Parkin): no binding
